Source: PubChem BioAssay AID1508597 (Cure First, 2020)
Screen: 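Genes whose silencing sensitises or protects ovarian cancer cells against rucaparib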 (primary screen). Cell system: human ovarian carcinoma lines grown from tumours: OCI-P5x (papillary serous) and OCI-C5x (clear cell). Reagent: siRNA pool against human genes, 1.25 pmol siRNA per well. Duration: 72 h or 96 h, depending on the cell culture. Challenge: rucaparib 20 µM (about IC30) or vehicle, present until read-out. Rucaparib or vehicle: Vehicle. Cell line: OCI-P5x (serous). Measured: 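ATP luminescence measured at 72 or 96 h according to the culture, then normalised and expressed as percent viability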. Scale: viability, normalised: higher = more viable cells remaining. Hit rule: 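Active when normalised viability falls below 80 percent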. Meaning of the calls: active = viability under 80%; inactive = viability 80% or more.
Shown is an unselected part of the about 2,100 reagents, under one of the conditions tested. 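Calls flag viability under 80% in either arm, not effects specific to rucaparib; the reference for percent is not stated.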 Entries without a mark were called inactive. Reagent sequences are not shown. Not given: the 100% reference.

gene | technical replicate | viability, normalised (%)
MED14 | 1 | 58.5 (active)
MED14 | 2 | 56.8 (active)
MED14 | 3 | 69.3 (active)
COPRS | 1 | 62.5 (active)
COPRS | 2 | 93.7
COPRS | 3 | 132
HAT1 | 1 | 61.1 (active)
HAT1 | 2 | 76.2 (active)
HAT1 | 3 | 75 (active)
KSR2 | 1 | 82.6
KSR2 | 2 | 69.8 (active)
KSR2 | 3 | 59.2 (active)
ZSCAN20 | 1 | 64 (active)
ZSCAN20 | 2 | 90.4
ZSCAN20 | 3 | 64.2 (active)
VCAM1 | 1 | 96.3
VCAM1 | 2 | 90.4
VCAM1 | 3 | 90.6
CMPK1 | 1 | 94.5
CMPK1 | 2 | 71.9 (active)
CMPK1 | 3 | 62.7 (active)
FTO | 1 | 84.3
FTO | 2 | 98.1
FTO | 3 | 91.7
AEBP2 | 1 | 69.1 (active)
AEBP2 | 2 | 67.3 (active)
AEBP2 | 3 | 72 (active)
KMT5B | 1 | 76 (active)
KMT5B | 2 | 73.6 (active)
KMT5B | 3 | 55.3 (active)
DHX30 | 1 | 59 (active)
DHX30 | 2 | 62.8 (active)
DHX30 | 3 | 67.6 (active)
WHR1 | 1 | 73.6 (active)
WHR1 | 2 | 83.8
WHR1 | 3 | 61.5 (active)
GDPD4 | 1 | 40.1 (active)
GDPD4 | 2 | 42.3 (active)
GDPD4 | 3 | 48.8 (active)

A run of entries from the list above, as a working copy:
gene | technical replicate | viability, normalised (%)
ZSCAN20 | 2 | 90.4
ZSCAN20 | 3 | 64.2 (active)
VCAM1 | 1 | 96.3
VCAM1 | 2 | 90.4
VCAM1 | 3 | 90.6
